From patent CN114516919A
Results are given in words; binding and its absence hold for the method and conditions named. Some results given as binding are weak or reduced against the parent protein; the word gives no strength.

By UniProt entry, the sequences of proteins in these tests, tags left out. Residues count along the entry.
UniProt Q13018, residues 21-1463: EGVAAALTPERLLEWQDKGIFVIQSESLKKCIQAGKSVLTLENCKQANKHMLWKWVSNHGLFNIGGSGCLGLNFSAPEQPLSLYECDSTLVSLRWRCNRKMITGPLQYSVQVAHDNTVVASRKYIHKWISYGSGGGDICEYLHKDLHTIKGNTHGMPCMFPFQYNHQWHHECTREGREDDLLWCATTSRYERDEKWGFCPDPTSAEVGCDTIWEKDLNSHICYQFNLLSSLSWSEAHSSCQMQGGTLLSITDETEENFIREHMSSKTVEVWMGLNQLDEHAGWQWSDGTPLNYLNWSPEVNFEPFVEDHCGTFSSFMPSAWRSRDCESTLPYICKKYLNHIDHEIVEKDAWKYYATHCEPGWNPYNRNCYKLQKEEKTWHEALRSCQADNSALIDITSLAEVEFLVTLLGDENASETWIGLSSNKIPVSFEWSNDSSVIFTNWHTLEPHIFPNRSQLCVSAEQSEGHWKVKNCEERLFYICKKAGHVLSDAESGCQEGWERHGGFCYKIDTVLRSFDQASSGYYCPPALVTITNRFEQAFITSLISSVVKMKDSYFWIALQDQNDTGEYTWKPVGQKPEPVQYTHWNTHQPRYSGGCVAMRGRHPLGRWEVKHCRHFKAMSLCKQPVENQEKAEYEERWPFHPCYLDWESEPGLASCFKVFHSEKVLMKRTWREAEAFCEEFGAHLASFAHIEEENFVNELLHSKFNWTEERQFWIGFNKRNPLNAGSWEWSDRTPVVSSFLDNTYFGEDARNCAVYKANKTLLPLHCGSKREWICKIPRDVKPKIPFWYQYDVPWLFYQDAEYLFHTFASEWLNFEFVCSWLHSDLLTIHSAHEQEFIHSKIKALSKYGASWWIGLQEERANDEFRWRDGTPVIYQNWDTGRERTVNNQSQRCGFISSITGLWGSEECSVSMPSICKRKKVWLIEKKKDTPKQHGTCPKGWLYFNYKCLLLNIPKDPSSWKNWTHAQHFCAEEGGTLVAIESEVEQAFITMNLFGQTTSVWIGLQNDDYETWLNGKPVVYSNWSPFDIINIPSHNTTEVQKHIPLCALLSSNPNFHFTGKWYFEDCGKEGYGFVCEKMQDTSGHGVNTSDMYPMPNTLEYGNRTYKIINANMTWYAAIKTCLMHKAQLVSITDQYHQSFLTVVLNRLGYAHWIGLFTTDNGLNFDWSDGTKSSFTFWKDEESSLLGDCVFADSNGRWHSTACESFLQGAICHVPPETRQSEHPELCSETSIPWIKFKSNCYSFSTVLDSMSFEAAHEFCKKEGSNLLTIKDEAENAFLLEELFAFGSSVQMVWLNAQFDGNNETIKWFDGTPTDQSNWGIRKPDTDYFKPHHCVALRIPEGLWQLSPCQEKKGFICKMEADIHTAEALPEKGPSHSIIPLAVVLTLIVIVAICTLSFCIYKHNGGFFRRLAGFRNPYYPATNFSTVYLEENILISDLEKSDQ

Biological target: 表达PLA2R蛋白细胞上的PLA2R蛋白 (UniProt Q13018)
Test: flow cytometry on PLA2R-expressing cells, 0.5 μg antibody, Alexa Fluor 488 goat anti-rabbit secondary

- binding: binds
B1: 54D11抗PLA2R重组兔单克隆抗体 (antibody, V domains shown)
VH: QSVEESGGRLVTPGTPLTLTCTVSGIDLSSHGMGWVRQAPGKGLEWIGYINTGGSAYYASWAKGRFTISRTSTTVDLKMTSLTTEDTATYFCARGDPDYTSGFPIWGPGTLVTVSS
VL: AFEMTQTPASVEVAVGGTVTIKCQASESISSWLAWYQQKPGQPPKLLIYRASTLASGVPSRFSGSGSGTQFTLTISGVECADAATYYCQQGYSSHNIDNIFGGGTEVVVR
